Reference: patent US20240116882A1, “NOVEL BENZOTRIAZOLE DERIVATIVE HAVING INHIBITORY ACTIVITY AGAINST ECTONUCLEOTIDE PYROPHOSPHATASE-PHOSPHODIESTERASE, AND USE THEREOF” (TXINNO BIOSCIENCE INC., priority 2021, published 2024)
At least one structure is not confirmed: it was looked up by name or label, or the drawing left a doubt.

Biological target: T1, human recombinant ENPP1 enzymes (Homo sapiens, UniProt P22413)
T1 construct: purchased R & D systems
T1 sequence (P22413 1-925): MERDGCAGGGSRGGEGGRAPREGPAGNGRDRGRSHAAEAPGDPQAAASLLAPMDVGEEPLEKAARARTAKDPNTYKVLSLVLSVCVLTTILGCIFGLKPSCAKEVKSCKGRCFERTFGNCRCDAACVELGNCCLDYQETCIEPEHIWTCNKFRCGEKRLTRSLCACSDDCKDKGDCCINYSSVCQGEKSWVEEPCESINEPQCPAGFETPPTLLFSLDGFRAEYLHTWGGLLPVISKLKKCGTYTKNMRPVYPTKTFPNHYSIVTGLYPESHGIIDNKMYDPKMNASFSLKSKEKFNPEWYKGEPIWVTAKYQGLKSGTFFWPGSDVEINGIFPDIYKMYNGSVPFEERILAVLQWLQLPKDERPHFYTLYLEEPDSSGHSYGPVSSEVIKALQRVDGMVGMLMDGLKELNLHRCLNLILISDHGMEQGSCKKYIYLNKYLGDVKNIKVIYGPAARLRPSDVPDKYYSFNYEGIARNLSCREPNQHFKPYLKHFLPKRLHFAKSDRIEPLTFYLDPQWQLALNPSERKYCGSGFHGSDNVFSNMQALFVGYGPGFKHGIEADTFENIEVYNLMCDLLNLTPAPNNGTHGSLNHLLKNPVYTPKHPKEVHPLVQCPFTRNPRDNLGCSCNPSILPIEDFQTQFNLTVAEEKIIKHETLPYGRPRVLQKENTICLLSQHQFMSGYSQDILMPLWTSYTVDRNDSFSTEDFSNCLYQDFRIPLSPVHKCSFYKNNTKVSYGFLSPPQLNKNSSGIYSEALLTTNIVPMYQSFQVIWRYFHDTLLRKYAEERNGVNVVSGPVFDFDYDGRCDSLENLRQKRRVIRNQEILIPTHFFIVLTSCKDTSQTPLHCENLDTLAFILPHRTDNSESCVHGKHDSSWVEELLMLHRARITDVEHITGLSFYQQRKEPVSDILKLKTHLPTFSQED
Experiment: ENPP1 Enzyme Assay with cGAMP Substrate (AMP-Glo)
Format: biochemical
Conditions: human recombinant ENPP1, cGAMP 5 μM, 37° C. 90 minutes, AMP-Glo luminescence; read-out: Enzymatic activity (IC50)
Experimental: ENPP1 hydrolyzes nucleotides or nucleotide derivatives to produce nucleoside-5′-monophosphate and pyrophosphate. In addition, ENPP1 hydrolyzes 2′,3′-cGAMP to produce 5′-adenosine monophosphate (AMP) and 5′-guanosine monophosphate (GMP). AMP produced from the reaction is measured using the AMP-Glo® kit (Promega). The AMP-Glo® kit contains two reagents. The first reagent terminates the AMP-producing enzymatic reaction, removes ATP and converts the produced AMP into ADP. The second reagent converts ADP into ATP which is used to generate luminescence in the luciferase reaction. The amount of luminescence measured is proportional to the amount of AMP produced by ENPP1.
The final reaction solution contains 50 mM Tris (pH 8.5) buffer, 250 mM NaCl, 0.5 mM CaCl2), 1 μM ZnCl2, 5% glycerol and 1% DMSO. […] Luminescence signals were measured using a Victor® plate reader (Perkin Elmer). The maximal activity control (containing enzymes and substrates in the presence of 1% DMSO; MAX) and the minimal activity control (containing substrates and 1% DMSO; MIN) were evaluated simultaneously. […] IC50, indicating % residual activity versus compound concentration was determined by fitting inhibition curves using the 3-parameter analysis of GraphPad Prism® software. Serially diluted samples of one compound were tested two or more times and an average IC50 of each compound was calculated.

CC(F)(F)c1ccc2c(c1)nnn2-c1ccc(CN)cc1 [Example 86]
IC50: > 10 µM
